# The campaign covered roughly 300,000 compounds. About 3,700 (1.2%) were called active. The inconclusive results got no clear call from the source; some entries with a clear call stand among them for comparison. The call rests on the fitted dose curve; tested in HEK293 cells. Potencies beside an inconclusive call are fits to weak or partial responses and may not hold up.
# Experiment: qHTS for Inhibitors of binding or entry into cells for Lassa Virus; further: nearly all actives have a fitted effect of over 50% in size
# Details: Lassa virus pseudotype entry inhibition, cell reporter; activity change, negative = inhibition: at 37.9 µM (top of the series) unless noted
# On the % scale 0 is the no-effect control and ±100 the full control effect; potency means the concentration at half of the fitted maximal effect.
Compound,Potency,"activity change, negative = inhibition"
Nc1c(-c2ccccc2)cnn1-c1ccc(C(=O)O)cc1,"inconclusive: 29.1 µM [inhibitor, single point]",
CC(C)S(=O)(=O)c1cnc(-c2ccccn2)nc1N,"inconclusive: 35.5 µM [inhibitor, single point]",
Cn1nc(C(=O)Nc2c(-c3ccccc3)nc3sccn23)c2ccccc2c1=O,"inconclusive: 20.6 µM [inhibitor, single point]",
O=C(CSc1nc2ccc(Nc3nc(N4CCOCC4)nc(N4CCOCC4)n3)cc2s1)Nc1ccccc1Cl,"inconclusive: 14.1 µM [inhibitor, single point]",
CC(=O)Nc1ccc(NC(=O)COC(=O)C2(c3ccc(Cl)cc3)CCCC2)cc1,"inconclusive: 13 µM [inhibitor, partial curve]",
COc1ccc(-c2cn3nc(N4CCCC(C(=O)NCCCOC(C)C)C4)sc3n2)cc1 (centres undefined),"inconclusive: 11.2 µM [activator, partial curve, poor fit]",
CCC(=O)N1CCc2cc(S(=O)(=O)NC(Cc3ccccc3)C(=O)NCc3cccc(OC)c3)ccc21 (centres undefined),"inconclusive: 10 µM [inhibitor, single point]",
COc1ccc(C(=O)n2c(-c3ccco3)nc3ccccc32)cc1,,inactive: -25.9%
O=C(c1ccco1)N(Cc1ccccc1)Cc1ccccn1,,inactive: -2.97% [at 46.1 µM]
Cc1cc(N/N=C/c2ccc(F)cc2)nc(NCc2ccccc2)n1,"inconclusive: 12.6 µM [inhibitor, partial curve, poor fit]",
COc1ccc(-n2c(O)c(/C(C)=N/N3CCCCCC3)c(=O)[nH]c2=O)cc1,active: 2.24 µM,
CC(C)(C)C1CCC(OC(=O)c2ccncc2)CC1 (centres undefined),"inconclusive: 1.26 µM [inhibitor, single point]",
CC(C)(C)C(=O)Nc1ccc2nc(SCc3ccccc3)sc2c1,,inactive: 2.58% [at 46.1 µM]
CCc1ccc(NCc2cc3cc(OC)c(OC)cc3n(CC(=O)Nc3ccc(F)cc3)c2=O)cc1,"inconclusive: 35.5 µM [inhibitor, partial curve, poor fit]",
Cc1cccc(NC(=O)CC2C(=O)OCCN2Cc2ccccc2)c1 (centres undefined),,inactive: -3.46% [at 46.1 µM]
Cc1ccc(C)c(S(=O)(=O)Nc2ccc(C(=O)NCCc3ccccn3)cc2)c1,"inconclusive: 0.708 µM [inhibitor, single point]",
CO/N=C/c1ccc(Oc2ccc([N+](=O)[O-])cc2[N+](=O)[O-])c(OC)c1,"inconclusive: 20.6 µM [inhibitor, single point]",
CN(C(=O)CSc1cccc[n+]1[O-])C1CCCCC1,,inactive: 11.1%
COc1ccc(C=NNC(=O)c2cc(C)oc2C)cc1O,"inconclusive: 1.26 µM [activator, single point]",

# Entries of single compounds from above.
# `Cc1ccc(C)c(S(=O)(=O)Nc2ccc(C(=O)NCCc3ccccn3)cc2)c1` reads Potency: inconclusive: 0.708 µM [inhibitor, single point]
# `O=C(c1ccco1)N(Cc1ccccc1)Cc1ccccn1` reads activity change, negative = inhibition: inactive: -2.97% [at 46.1 µM]
